{"source": "PubChem BioAssay AID504582", "about": "(Broad Institute, 2011)", "note": "“And” between values parts separate entries of the source, which are not always exact repeats. Identical values can stand only once. Screen size: about 340,000 compounds; about 2,300 (0.68%) were called active. This list was built around the results that the source calls inconclusive (neither active nor inactive); the mix of calls is not that of the screen. No stated cut-off is given here; in the data, active means growth rescue above about 28% (passing the limit was not always enough); inconclusive means no clear call, values can overlap the other calls.", "data": [{"assay": "rescue of yeast from PfHsp40 toxicity, primary screen, S. cerevisiae, ATP luminescence (AID 504582);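 further: yeast W303a lacking pdr1 and pdr3 grown in galactose medium; growth measured after three days at 30 °C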", "conditions": "S. cerevisiae expressing PfHsp40, growth rescue, at 12.5 µM, stronger effect = higher value", "values": [{"smiles": "c1ccc(CSC2=NNC(c3ccccn3)S2)cc1", "note": "(stereo not given)", "growth rescue": "active: 92.5%"}, {"smiles": "COC(=O)C1CCN(C(=O)COC(=O)c2n[nH]c3ccccc23)CC1", "growth rescue": "inconclusive: 44.5%"}, {"smiles": "C#CCOCCOCCOCCNc1nc(N2CCN(C(=O)CCCCCCCCCCNC(=O)[C@H]([C@@H](C)CC)n3cc(CCCCCN)nn3)CC2)nc(N2CCN(C(=O)CCCCCCCCCCNC(=O)[C@H]([C@@H](C)CC)n3cc(CCCCN=C(N)N)nn3)CC2)n1", "growth rescue": "active: 69%"}, {"smiles": "CCCCNc1ccc(S(=O)(=O)c2cccc([N+](=O)[O-])c2)cc1[N+](=O)[O-]", "growth rescue": "inconclusive: 37.3%"}, {"smiles": "CCCCCCCc1ccc(-c2ccc(O)cc2)nc1", "growth rescue": "active: 253%"}, {"smiles": "Cc1ccccc1N1CCN(C2=NC(=O)/C(=C\\c3cccs3)S2)CC1", "growth rescue": "inconclusive: 25.5%"}, {"smiles": "COc1cccc2c1C(=O)c1c(O)c3c(c(O)c1C2=O)CC(O)(C(C)=O)CC3OC1CC(O)C(O)C(C)O1", "note": "(stereo not given)", "growth rescue": "inactive: -0.841%"}, {"smiles": "Cc1occc1C(=O)NC(C)C12CC3CC(CC(C3)C1)C2", "note": "(stereo not given)", "growth rescue": "active: 105%"}, {"smiles": "c1c[nH]c(CN2CCN(Cc3ncc[nH]3)CC2)n1", "growth rescue": "active: 384%"}, {"smiles": "CCOc1ccccc1C(=O)Nc1cc(Cl)ccc1O", "growth rescue": "inconclusive: 266%"}, {"smiles": "N#C/C(=N\\Nc1ccc(Cl)cc1)C(=O)c1ccsc1", "growth rescue": "inactive: 0.0715%"}, {"smiles": "OCCCCC#Cc1c(-c2ccsc2)sc2ccccc12", "growth rescue": "inconclusive: 32.4%"}, {"smiles": "O=c1cc(C(F)(F)F)[nH]c2c(C(F)(F)F)cccc12", "growth rescue": "inconclusive: 26.8%"}, {"smiles": "O=C(/C(=C/O)N=Nc1ccc(Cl)cc1)c1ccncc1", "growth rescue": "inconclusive: 122%"}, {"smiles": "COc1ccc(NC(=O)C(=O)NCCN2CCN(C(=O)c3cccs3)CC2)cc1", "growth rescue": "active: 57.6%"}, {"smiles": "CCOc1cc(N2CCOCC2)c(OCC)cc1NC(=O)COC(=O)c1ccc([N+](=O)[O-])o1", "growth rescue": "active: 81.7%"}, {"smiles": "CCOC(=O)[C@H]1[C@H]2COc3ccc(Br)cc3[C@@H]2N2C(=O)c3ccc(C)cc3NC(=O)[C@@]12C", "growth rescue": "inconclusive: 27.8%"}, {"smiles": "CC(=O)c1cc(-c2ccccc2)n(CCC(=O)NC2CCCCCCC2)c1C", "growth rescue": "inconclusive: 33.8%"}, {"smiles": "CCOC(=O)c1c(CN2CCN(c3ccccc3)CC2)oc2ccc(O)cc12", "growth rescue": "inactive: 0.452%"}, {"smiles": "O=C(O)CCNC(=O)/C(=C\\C=C\\c1ccccc1)NC(=O)c1ccccc1", "growth rescue": "inactive: -0.224%"}, {"smiles": "COc1cc(/C=C/C(=O)OCC(=O)N2CCOCC2)ccc1OCC#N", "growth rescue": "inconclusive: 33.4%"}, {"smiles": "COc1ccc(Nc2nc3c(C)cccn3c(=O)c2C=NCc2ccccc2)cc1", "growth rescue": "inactive: -0.216%"}, {"smiles": "O=C(Nc1c(C(=O)N2CCOCC2)cnn1-c1ccccc1)c1ccc(F)cc1", "growth rescue": "inconclusive: 27.7%"}, {"smiles": "CC(C)(C)c1ccc(NC(=S)NCc2cccs2)cc1", "growth rescue": "inconclusive: 98.1%"}, {"smiles": "COC(=O)[C@]1(C)N[C@H](c2ccc(-c3ccc(Cl)c(Cl)c3)cc2)[C@@H]2C(=O)N(C)C(=O)[C@@H]21", "growth rescue": "inconclusive: 81.5%"}, {"smiles": "CC(C)C[C@@H](CO)N(Cc1ccccc1)S(=O)(=O)N(Cc1ccccc1)[C@H](CO)CC(C)C", "growth rescue": "inactive: 2.35%"}, {"smiles": "CCc1oc2ccccc2c1C(=O)c1cc(Br)c(O)c(Br)c1", "growth rescue": "inconclusive: 41.2% and active: 259%"}, {"smiles": "C=C(C)COc1ccc(-c2n[nH]c(C)c2Oc2ccccc2OC)c(O)c1", "growth rescue": "inconclusive: 66.2%"}, {"smiles": "O=C(NC(C1CC1)C1CC1)C1CCC(=O)N(CCCN2CCCC2=O)C1", "note": "(stereo not given)", "growth rescue": "active: 36%"}, {"smiles": "Cc1cc(Nc2ccccc2)n(-c2nc3ccccc3[nH]2)n1", "growth rescue": "inconclusive: 115%"}, {"smiles": "COC(=O)c1cnc(NNC(=O)c2ccc([N+](=O)[O-])cc2)nc1C(F)(F)F", "growth rescue": "active: 63%"}, {"smiles": "O=[N+]([O-])c1ccc(CN2CCOCCOCCN(Cc3ccc([N+](=O)[O-])cc3)CCOCC2)cc1", "growth rescue": "inconclusive: 34.3%"}, {"smiles": "Cc1nc2cc(C(=O)NCc3cccnc3)ccc2n1-c1ccc(F)cc1F", "growth rescue": "inconclusive: 36.3%"}, {"smiles": "COc1ccc(Cl)cc1C(=O)OCC(=O)N(CC(C)C)c1c(N)n(Cc2ccccc2)c(=O)[nH]c1=O", "growth rescue": "inactive: 0.644%"}, {"smiles": "CC(C)CNC(=O)C(=O)NCC1CCCN1S(=O)(=O)c1cccs1", "note": "(stereo not given)", "growth rescue": "inactive: -1.5%"}, {"smiles": "COc1ccc(Cl)cc1C(=O)NCCN1CCOCC1", "growth rescue": "inactive: -2.3%"}, {"smiles": "CNc1nc(SCc2ccccc2Cl)nc2c1CCCC2", "growth rescue": "inconclusive: 121%"}, {"smiles": "O=C(NC1=CC(=O)c2ccccc2C1=O)c1ccccc1", "growth rescue": "active: 300%"}, {"smiles": "CCOC(=O)c1ccc(N2C(=O)c3n[nH]c(C)c3C2c2ccc(OC)c(OC)c2)cc1", "note": "(stereo not given)", "growth rescue": "inactive: 2.05%"}, {"smiles": "COc1ccc(C)cc1NC(=O)CN1CCN(c2ccc(F)cc2)CC1", "growth rescue": "inconclusive: 30.3%"}, {"smiles": "COc1ccc(C2NCCc3c2[nH]c2ccccc32)cc1COc1ccc(F)cc1", "note": "(stereo not given)", "growth rescue": "inactive: 0.172%"}, {"smiles": "CCN(Cc1ccccc1)C(c1ccc(C(F)(F)F)cc1)c1nnnn1C(C)(C)C", "note": "(stereo not given)", "growth rescue": "inconclusive: 34.2%"}, {"smiles": "O=C(Nc1ccccc1N1CCOCC1)c1cc2c(s1)CCCCC2", "growth rescue": "active: 73.2%"}, {"smiles": "C[C@H](NC(=O)c1nc[nH]c1C(=O)N[C@@H](Cc1ccccc1)C(=O)OCc1ccccc1)c1ccccc1", "growth rescue": "inconclusive: 28.5%"}, {"smiles": "CCCNC(=O)c1ccc2c(=O)c(O)c(-c3ccsc3)[nH]c2c1", "growth rescue": "inconclusive: 73.6%"}, {"smiles": "Cc1ccc(Nc2cc(C)nc(NCc3ccccc3)n2)cc1", "growth rescue": "inconclusive: 94.6%"}, {"smiles": "Cc1ccc(NC(=S)N/N=C/c2cccn2Cc2ccccc2F)cc1", "growth rescue": "inconclusive: 26.2%"}, {"smiles": "Cc1ccccc1C(=O)N/N=C1/SCC(=O)N1Cc1ccccc1", "growth rescue": "inactive: -1.38%"}, {"smiles": "NC(=O)C1CCN(c2ncnc3c(-c4ccccc4)nsc23)CC1", "growth rescue": "inconclusive: 25.7%"}, {"smiles": "Cc1cc(Cl)ccc1OC(C)C(=O)Nc1ccc(C(=O)Nc2ccccc2C(=O)O)cc1", "note": "(stereo not given)", "growth rescue": "active: 51.7%"}, {"smiles": "CC1=CC2=NC(=O)/C(=C\\c3cccn3CCOc3cccc(C)c3)C(=N)N2O1", "growth rescue": "active: 44.2%"}, {"smiles": "Cc1ccc(NC(=O)CS(=O)CC(=O)N(c2ccccc2F)C(C)C(=O)NC2CCCC2)cc1", "note": "(stereo not given)", "growth rescue": "inconclusive: 25.5%"}, {"smiles": "Cc1csc(CN(C)C(=O)C2CCC(=O)N(Cc3ccc(Cl)cc3)C2)n1", "note": "(stereo not given)", "growth rescue": "inconclusive: 32.4%"}, {"smiles": "Cc1ccc2oc(C(=O)N3CCC(O)(c4ccccc4)CC3)c(C)c2c1", "growth rescue": "inconclusive: 31.1%"}, {"smiles": "CN(C)CCCN1c2ccccc2Sc2ccc(Cl)cc21", "growth rescue": "inconclusive: 74.8%"}, {"smiles": "CCCCCCCNC(=O)C1(CC2CC(c3ccc(Cl)cc3)=NO2)CCN(C(=O)CCCCCBr)CC1", "note": "(stereo not given)", "growth rescue": "inconclusive: 35.5%"}, {"smiles": "Cc1ccc(CSc2nnc(-c3ccncc3)n2CC2CCCO2)cc1", "note": "(stereo not given)", "growth rescue": "active: 53.7%"}, {"smiles": "COCc1cc(CN2CCCC2)c(O)c2ncccc12", "growth rescue": "inconclusive: 114%"}, {"smiles": "O=[N+]([O-])c1ccc2nc(-c3ccc(Cl)cc3)[nH]c2c1", "growth rescue": "inconclusive: 101%"}, {"smiles": "Cc1cccc(COc2ccc(/C=N/NC(=O)c3nnn(-c4nonc4N)c3CN3CCCCC3)cc2)c1", "growth rescue": "inconclusive: 28.2%"}, {"smiles": "Cc1oc2c(C)c(O)ccc2c(=O)c1-c1ccc2ccccc2n1", "growth rescue": "inactive: -0.356%"}, {"smiles": "Cc1ccc(OC(=O)c2ccccc2C(=O)OCC(F)(F)C(F)F)cc1", "growth rescue": "inconclusive: 29.3%"}, {"smiles": "CCCC(=O)NC(c1ccccc1)c1ccc2cccnc2c1O", "note": "(stereo not given)", "growth rescue": "inconclusive: 60.9%"}, {"smiles": "CC(c1ccco1)N(C(=O)c1ccccc1NS(=O)(=O)c1cccc([N+](=O)[O-])c1)c1ccccn1", "note": "(stereo not given)", "growth rescue": "inconclusive: 25.4%"}, {"smiles": "C[C@@H]1Cc2c(O)c(O)cc(O)c2C(=O)O1", "growth rescue": "inactive: -0.099%"}, {"smiles": "Cc1c(C(=O)/C=C/N(C)C)nnn1-c1ccc(Cl)c(Cl)c1", "growth rescue": "inconclusive: 130%"}, {"smiles": "COc1c2ccoc2c(OC[C@@H](O)C(C)(C)O)c2oc(=O)ccc12", "growth rescue": "inactive: -0.54%"}, {"smiles": "CC(C)CC(=O)NC(c1ccccc1Cl)c1c(O)ccc2ccccc12", "note": "(stereo not given)", "growth rescue": "inactive: 1.9%"}, {"smiles": "O=C1C=CC(=O)N1c1ccc(O)cc1", "growth rescue": "inconclusive: 36.5%"}, {"smiles": "COc1ccccc1C(=O)NCC(=O)N/N=C/c1ccc([N+](=O)[O-])cc1", "growth rescue": "inconclusive: 50.9%"}, {"smiles": "CCOC(=O)C1CCN(S(=O)(=O)c2ccc(-c3ccc(=O)[nH]n3)o2)CC1", "growth rescue": "inactive: -1.06%"}, {"smiles": "CC(=O)Oc1ccccc1/C=C/c1nc2ccccc2c(=O)o1", "growth rescue": "inactive: -0.555%"}, {"smiles": "O=C(Nc1ccccc1C(=O)O)c1ccc(NC(=O)c2ccc(Br)o2)cc1", "growth rescue": "inconclusive: 60.3%"}, {"smiles": "Cc1ccccc1N1C(=O)c2cccc3c(N(C)CCO)ccc(c23)C1=O", "growth rescue": "inconclusive: 27.7%"}, {"smiles": "CSc1ncccc1C(=O)OCC(=O)NCc1ccccc1", "growth rescue": "inconclusive: 54.5%"}, {"smiles": "O=C(NCC1CCCN(Cc2cccc(F)c2)C1)c1cccc2ccccc12", "note": "(stereo not given)", "growth rescue": "inconclusive: 38.6%"}, {"smiles": "N#Cc1ccc(C(=O)OCC(=O)NC(=O)NC2CCCCC2)cc1", "growth rescue": "inactive: 0.27%"}, {"smiles": "CCCc1nc2ccccc2c(C(=O)OCc2nnc(-c3cc(OC)c(OC)c(OC)c3)o2)c1CC", "growth rescue": "inconclusive: 30.9%"}, {"smiles": "O=C1Nc2ccccc2OC1CC(=O)N1CCOCC1", "note": "(stereo not given)", "growth rescue": "inactive: -0.207%"}, {"smiles": "CN(CC(=O)NCc1ccccc1)S(=O)(=O)c1ccc2c(c1)CCC(=O)N2", "growth rescue": "inactive: -0.05%"}, {"smiles": "O=C(Nc1nnc(-c2ccc(Cl)cc2)o1)c1ccccc1Br", "growth rescue": "active: 92.7%"}, {"smiles": "CCC(C)Sc1cc(-c2nc3ccccn3c2NC2CCCCC2)ccc1OC", "note": "(stereo not given)", "growth rescue": "inconclusive: 48.6%"}, {"smiles": "O=C(N/N=C/c1ccc(O)c(O)c1O)/C(=C/c1ccc([N+](=O)[O-])cc1)NC(=O)c1ccccc1", "growth rescue": "inconclusive: 206%"}, {"smiles": "Cc1sc(NC(=O)C2C3C=CC(C3)C2C(=O)O)c(C(N)=O)c1-c1ccc(C(C)C)cc1", "note": "(stereo not given)", "growth rescue": "inconclusive: 109%"}, {"smiles": "CCOc1cccc(C2/C(=C(/O)c3ccc4c(c3)CC(C)O4)C(=O)C(=O)N2Cc2ccncc2)c1", "note": "(stereo not given)", "growth rescue": "inactive: -1.99%"}]}]}
